Source: patent US20160122421A1
Numbering of substitutions follows the chain as printed. Results are given in words; binding and its absence hold for the method and conditions named. Some results given as binding are weak or reduced against the parent protein; the word gives no strength.

Protein sequences, listed by entry. Tags and fused reporters are not part of them. Lines headed by an entry give the natural chain unless they say otherwise; changes in a name come on top. Chains listed by the source or under a name are the forms on record and can include a tag or linker.
UniProt P10636: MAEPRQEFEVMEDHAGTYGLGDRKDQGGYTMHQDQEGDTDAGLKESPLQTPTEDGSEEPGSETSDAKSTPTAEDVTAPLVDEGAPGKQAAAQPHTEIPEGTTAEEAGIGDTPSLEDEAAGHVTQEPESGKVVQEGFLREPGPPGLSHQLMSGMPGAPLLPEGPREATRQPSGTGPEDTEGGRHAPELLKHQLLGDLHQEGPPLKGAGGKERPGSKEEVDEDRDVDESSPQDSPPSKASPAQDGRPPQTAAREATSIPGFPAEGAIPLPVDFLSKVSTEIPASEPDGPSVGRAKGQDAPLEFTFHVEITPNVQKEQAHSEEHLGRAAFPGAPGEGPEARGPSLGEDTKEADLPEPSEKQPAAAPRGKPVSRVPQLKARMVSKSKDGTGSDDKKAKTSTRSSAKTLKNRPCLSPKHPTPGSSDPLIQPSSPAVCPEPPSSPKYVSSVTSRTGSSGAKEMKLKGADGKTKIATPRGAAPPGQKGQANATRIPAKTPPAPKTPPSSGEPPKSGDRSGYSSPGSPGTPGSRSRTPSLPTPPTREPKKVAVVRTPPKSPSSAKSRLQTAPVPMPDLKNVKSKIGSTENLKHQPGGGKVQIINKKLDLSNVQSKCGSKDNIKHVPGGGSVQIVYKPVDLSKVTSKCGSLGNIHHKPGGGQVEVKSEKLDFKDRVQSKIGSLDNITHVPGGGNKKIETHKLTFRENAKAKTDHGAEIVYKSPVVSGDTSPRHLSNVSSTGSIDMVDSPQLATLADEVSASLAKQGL
human tau P301L (4R2N) expressed in hTau.P301L-Tg mice (P10636, form named): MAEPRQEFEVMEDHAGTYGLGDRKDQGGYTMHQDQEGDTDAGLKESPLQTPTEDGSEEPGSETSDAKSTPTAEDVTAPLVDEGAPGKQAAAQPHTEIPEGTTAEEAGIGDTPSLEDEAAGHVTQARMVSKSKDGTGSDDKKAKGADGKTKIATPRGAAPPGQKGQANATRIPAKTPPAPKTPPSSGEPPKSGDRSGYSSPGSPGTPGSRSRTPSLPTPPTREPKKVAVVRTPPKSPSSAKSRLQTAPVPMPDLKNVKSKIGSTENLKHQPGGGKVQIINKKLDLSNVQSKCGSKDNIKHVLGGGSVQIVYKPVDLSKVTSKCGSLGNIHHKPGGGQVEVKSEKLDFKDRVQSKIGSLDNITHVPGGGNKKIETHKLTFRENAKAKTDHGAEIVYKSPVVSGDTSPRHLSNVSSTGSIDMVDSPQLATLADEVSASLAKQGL

B1: humanized IPN002 variant VH2/Vk1 (antibody, V domains shown)
VH: EVHLVESGGALVKPGGSLRLSCAASGFSFSKYGMSWVRQAPGKGLEWVATISSSGSRTYYPDSVKGRFTISRDNAKNTLYLQMNSLRAEDTAMYYCSISWDGAMDYWGQGTTVTVSS
VL: DVLMTQSPLSLPVTLGQPASISCKSSQSIVHSNGNTYLEWYLQKPGQSPQLLVYKVSNRFSGVPDRFSGSGSGTDFTLKISRVEAEDVGTYYCFQGSLVPWAFGGGTKVEIK
B2: humanized IPN002 variant VH2/Vk2 (antibody, V domains shown)
VH: B1 VH
VL: B1 VL with L3V
B3: humanized IPN002 variant VH2/Vk3 (antibody, V domains shown)
VH: B1 VH
VL: B1 VL with L3V, T90V
B4: IPN001 (antibody, V domains shown)
VH: EVQLVESGEDLVKPGGSLKLSCVASGFAFSSYGMSWVRQTPDMRLEWVATISSSGSRTYFPDSVKGRLTISRDNDKNILYLQMSSLRSEDTAMYYCTITWDGAMDYWGRGISVTVSS
VL: DVLMTQTPLSLAVNLGDQASLSCRSSQTILHSNGNTYLEWYLQKPGQSPRLLIYKVSKRFSGVPDRFSGSGSGTDFTLKISRVEADDLGIYYCFQGSLVPWAFGGGTKLEIK
B5: IPN002 (antibody, V domains shown)
VH: B1 VH with R19K, A40T, G42D, G44R, R67Q, N84S, R87K, A88S, T112S
VL: B1 VL with S7T, T14S, Q17D, P18Q, Q50K, V88L, V109L

What was measured:
[1] = target: human tau P301L (4R2N) expressed in hTau.P301L-Tg mice (human) (UniProt P10636); assay: Western blot
[2] = target: human tau P301L (4R2N) expressed in hTau.P301L-Tg mice (human) (UniProt P10636); assay: Western blot; P301L tau mouse brain cortex lysates
[3] = target: human tau P301L (4R2N) expressed in hTau.P301L-Tg mice (human) (UniProt P10636); assay: Western blot of interstitial fluid
full-length phospho-tau [4] = target: full-length phospho-tau (UniProt P10636); assay: capture ELISA, coated antibody, detection with biotin-BT2 + biotin-HT7
full-length phospho-tau [5] = target: full-length phospho-tau (UniProt P10636); assay: capture ELISA: antibody coated on the well, full-length phospho-tau titrated 0-100 ng/ml, detected with biotin-labelled non-competitive anti-tau antibodies (BT2 + HT7) and streptavidin-HRP, raw OD

Binder	binding [1]	binding [2]	binding [3]	binding (full-length phospho-tau [4])	binding (full-length phospho-tau [5])
B1	binds	binds	–	–	–
B2	binds	binds	–	–	–
B3	binds	binds	–	–	–
B4	–	–	binds	–	–
B5	–	–	–	binds	binds
